PubChem BioAssay AID1347423 (Functional Genomics Laboratory (NCATS/FGL), 2020)
About 210 (0.4%) of roughly 52,000 sequences were called active.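 The calls were made as follows: active = gene whose silencing raises cell survival under the drug, median off-target-corrected z-score across its silencing RNAs 2 or more; inactive = the rest.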 The list shows a part of the results.

test: Resistance to Poly (ADP-Ribose) Polymerase inhibitor: Gene Identification via Genome-wide siRNA Screen; conditions: mouse BRCA2 R2336H ES cells, olaparib, CellTiter-Glo viability; active compounds read high
In short: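 Genome-wide siRNA screen (3 siRNAs/gene, 20 nM) in mouse ES cells carrying hypomorphic BRCA2 R2336H; olaparib 500 nM added 48 h post-transfection, CellTiter-Glo viability 72 h later. Normalized to plate-median negative control; MAD z-scores, gene median, seed-adjusted.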

Row | Sequence | z-score
1 | GGACUUCUGGAUUGUUGGATT against Thpo | inactive: -1.91
2 | GCCCGUAAAACUCUUUCAGTT against 4930458L03Rik | inactive: 0.795
3 | GGUAACAUCCCAGCUUUACTT against Pax7 | inactive: -1.11
4 | GGAAACAUUGUCAUCAUGATT against Olfr1299 | inactive: 0.897
5 | GGACUGAUCAUCUAUGACATT against AU042671 | inactive: 0.666
6 | GGUAAAAUCCCAGAACUGCTT against Serpinb1b | inactive: 1.32
7 | CGACAAGGAGACCUACAAATT against Itm2b | inactive: -2.13
8 | GCUACAGUUUGUGGGUGACTT against LOC574428 | inactive: -0.0295
9 | GGAUGUGCUCGGUUGGAAGTT against Mata2 | inactive: 0.00669
10 | GGCUGUAUGUAUAUAGUCCTT against Snrpb | inactive: -2.2
11 | GGCUAUCUCGUAUUCUGAUTT against Olfr985 | inactive: -0.668
12 | CCGACUUCGUACAAUGACCTT against Slc1a6 | inactive: 1.09
13 | GGCAGAGACCUCAAAACCATT against Selpl | inactive: 0.839
14 | CCGUUUACGGCCACUAACUTT against Phkg2 | inactive: 0.289
15 | GAUCUGUUACUCUUCUACUTT against Olfr1270 | inactive: -0.119
16 | GGACAUCAACUAUGCCUCUTT against Kif1a | inactive: 1.5
17 | GGGAAACCGAGUCAAGAAGTT against Fgf11 | inactive: 1.51
18 | GGCUGCCUUCAUCUUUUCUTT against Fth1 | inactive: -1.4
19 | GGACAGAGCGUGCACUAGATT against Pqlc2 | inactive: 0.262
20 | GGUCUUCCGGGAGAUCAUUTT against Temt | inactive: -0.227
21 | CCGAAAAUGAGAUAAAGUCTT against Polr2k | inactive: -2.3
22 | GCCGUGAACUUGCCAUCAATT against 4930517K23Rik | inactive: -0.34
23 | CCACCCAAAAGUAAAAAGUTT against Rpp38 | inactive: -0.201

Random excerpt: 3 records from the list
Row | Sequence | z-score
16 | GGACAUCAACUAUGCCUCUTT against Kif1a | inactive: 1.5
22 | GCCGUGAACUUGCCAUCAATT against 4930517K23Rik | inactive: -0.34
11 | GGCUAUCUCGUAUUCUGAUTT against Olfr985 | inactive: -0.668

The list goes on.

Row | Sequence | z-score
24 | GGUCUUCAGCACCUUUGAATT against Ccl2 | inactive: -1.17
25 | GGACUACAACUACCUUAACTT against Cdh3 | inactive: -0.877
26 | GGUCCUUCCAUAGUGACGCTT against Igfbp7 | inactive: 0.24
27 | GAACACAAAUCUAGUAGACTT against Olfr1109 | inactive: 0.365
28 | GGAAAGUGUUUUGUCAAUGTT against Olfr1305 | inactive: 0.576
29 | GCAUGCAGAGUUACUAUUGTT against Tas2r143 | inactive: -1.64
30 | GGUAUGGAAGACAAAACCUTT against Gm14 | inactive: 0.685
31 | CGAGUCAGACCUUGAUCUATT against Zfp406 | inactive: 0.26
32 | CGAGAAUAUCAUUUAUUGCTT against 2310045B01Rik | inactive: 0.0243
33 | GGAUAAAUGGGUAAUUCUGTT against V2R2 | inactive: 0.563
34 | CGGAGUUGACCUGACAUCCTT against Atp6v1c2 | inactive: -1.33
35 | CGGUGAAGACUAUCAUGGUTT against Tln1 | inactive: -0.313
36 | GGCGACCUCUAGGUGUCUUTT against Falz | inactive: -0.787
37 | GCUCAUGUCUUAUUUGGAUTT against Klhl15 | inactive: 0.562
38 | GGAAGUUAAGCAUAGUUUCTT against Flrt3 | inactive: 0.9
39 | AAGGUCGUUUACAUGAACATT against MGC103250 | inactive: 0.616
40 | GGCAUACCCAAAAAUAGAATT against Eif1a | inactive: -0.883
41 | GGCCAAGUUCAACAUUCCATT against Lilrb4 | inactive: 0.206
42 | CCACCUGUGCUACCACUUATT against Gm111 | inactive: -0.118
43 | GCCCAAGGAGGCAUUGAUATT against Fbxo8 | inactive: -0.323
44 | CGCAAGCUUAUUUCAAUGGTT against Cd86 | inactive: 0.386
45 | GGAGCAAAUCCAGAGCAACTT against Actr8 | active: 2.88
46 | GGGUCUCCAAACCAUCAGUTT against Kir3dl1 | inactive: 0.356

Row | Sequence | z-score
47 | GGGAUUAUCAUGCUUCAGATT against A930025J12Rik | inactive: 1.62
48 | GGUAUUGCACCAGGCAUGUTT against Ssh3 | inactive: -0.783
49 | GGGUACCAUAGGAACCAUGTT against 2310016N21Rik | inactive: -0.742
50 | GGAGGUGUAUGUAAUACCATT against Efs | inactive: 1.38
51 | GGAGGUUUUGGAAGAAGAATT against 1700012B09Rik | inactive: -1.28
52 | GCUCUUCAGAGUGAUCCAATT against Acmsd | inactive: 0.0794
53 | GGCCAAGAUAAAAAAGGCCTT against 2610002M06Rik | inactive: 0.766
54 | CCUAAUCUUUGUUCAGACCTT against 4.93E+26 | inactive: 0.0559
55 | GGGAGAGAUCCUCAACAGGTT against Cdk5rap1 | inactive: 1.38
56 | CGUACUUGUUUGAUUGAUCTT against Usp13 | inactive: -0.044
57 | GGCAUAGAGUACUUGCAUUTT against Camkk2 | inactive: 0.414
58 | GGACAACUGACUCCAUCAATT against Pla2g6 | inactive: -0.414
59 | CCAGUGUUGUUCUGUAAAUTT against Tsga14 | inactive: -0.905
60 | GGAGACAUUGGAGUAUGUCTT against Cst11 | inactive: 2.92
61 | GGCCAAAAGGUUGAGCAGUTT against D13Wsu123e | inactive: -1.01
62 | CCUCAGUCCUCUGUUAAAATT against Olfr355 | inactive: -0.574
63 | GGACCUCUUGCUAAUCCAATT against Ptprk | inactive: 0.666
64 | GGGUUGUGAAGAGAUUAAATT against Il1rl2 | inactive: -0.943
65 | GGACACACAUUCUUACAAATT against Ppap2a | inactive: 0.912
66 | GGCAACUUUGAGUUUGGUATT against Podn | inactive: 0.498
67 | GGAGAUGAAGUCUAUAUCATT against C1ql3 | inactive: 1.36
